PMC10163288
The list shows a part of the results.

B1: il2ra_site2_2erj_normal_mot_HHH_b2_06005_000000006_0001_1_15_H_._HHH_b1_08540_af2_0001_0000400022_0000001_0 (protein)
chain: SSSDEEEKELQELLREAERLLEEGNPEEAEKVLRRAFELAYRLGDPRAASLIIELAHLVARSSSS
B2: il2ra_site1_3nfp_normal_mot_HHH_b2_02066_af2_000000034_0001_1_16_H_._56b2e862c5d7020fcb9d25388f5aedda_0001_0001_0000100010_0000001_0_af2pred_0001_af2pred_1 (protein)
chain: TTAERALELAKEDGSLKAVSSVAEAVARLRNDPELEERIRELAEKAKENPEVREELIELAEELLK
B3: il2ra_site1_3nfp_normal_mot_HHH_b2_07488_000000189_0001_1_17_H_._68f07a3d948acdba3ab012a854af3bd0_0001_af2_0002_0000200016_0000001_0 (protein)
chain: NADEFFAEVALESGIPPERVAERLLEAAKRLGIPPEELSERLEELARKLGDPRLQEVAELVEELG
B4: il2ra_site2_2erj_normal_mot_HHH_b2_05633_000000270_0001_38_52_H_._HHH_b1_01885_0001_0000200025_0000001_0 (protein)
chain: SSSSSDEQEIIEEFAELVAEIIEIRDEEEIRELLKRLEELAEEVNSPALRRYLEYLRRDLSSSSS
B5: il2ra_site2_3nfp_sap_7_mot_HHH_b2_05605_000000133_0001_1_20_H_._HHH_b2_05232_af2_0001_0000500021_0000001_0_0001 (protein)
chain: SSSSSEEVERLIEEAERALEEGNPEEAKKILKRAAQLAFELNDPELFFKVAELAYELAQRGSSSS
B6: il2ra_site1_3nfp_normal_mot_HHH_b1_01335_af2_000000105_0001_39_53_H_._HHH_b2_00121_0001_0000300013_0000001_0_af2pred_0001_1_af2pred_swapped (protein)
chain: SSSSSEEEVRRVLKEAKEAAEEGDHRRVDELIREALKLANENRDEEAHRLVRKFLEEAAKNSSSS
B7: il2ra_site2_2erj_sap_13_mot_HHH_b2_03493_000000046_0001_40_57_H_._HHH_b1_00791_0001_0000300020_0000001_0_0001 (protein)
chain: TQEDVHEALREMGVPPEVIELFIELFLLALRHGDPRLREVLEKADQALAEGDPEEAEELLEEVLK
B8: il2ra_site1_2b5i_normal_mot_HHH_b1_02271_000000068_0001_1_16_H_._HHH_b2_05772_0001_0000400026_0000001_0_af2pred_dldesign_0_af2pred (protein)
chain: SSSSSPELKRLVEEALRRAEAAKAAGRVREALEILNAAHKKADEADDEELSDELEAKAKELSSSS
B9: il2ra_site1_2b5i_normal_mot_HHH_b2_06963_af2_000000094_0001_1_18_H_._HHH_b1_06981_af2_0001_0000100007_0000001_0_af2pred_0001_af2pred (protein)
chain: SSSSDLEQEILELYHEASKLLRQGNHEEAKKLLEEALELAEELGDEKLFKLIKHFLEMLESSSSS
B10: il2ra_site2_2erj_sap_23_mot_HHH_b1_08185_000000106_0001_41_55_H_._HHH_b1_03164_af2_0001_0000900069_0000001_0_0001 (protein)
chain: SSSSSSEYQEEIEELIEEARRVSKEEAAALLIDAAHLAARNRDDEIAKEVRELFAELFRRSSSSS
B11: il2ra_site1_3nfp_sap_9_mot_HHH_b1_00630_af2_000000193_0001_42_55_H_._HHH_b1_08000_af2_0001_0000100001_0000001_0_0001_af2pred_0001_af2pred_1 (protein)
chain: DLQELLQEDAEHASKWAGVTSVHVEVENGHVTVTVEADNNLAKALLLLLREAARQAGLEVEITIE
B12: il2ra_site2_2erj_sap_28_mot_HHH_b2_01204_af2_000000051_0001_19_34_H_._702f76d1131dc6d24a5c6e797340565d_0001_1_0001_0000100001_0000001_0_0001 (protein)
chain: SSSSNEELRELYELANELLRLLQEGDEEEFEKVLEEAKELAKKLDSENAKEILRWLERQLSSSSS
B13: il2ra_site2_2erj_sap_28_mot_HHH_b1_03572_af2_000000164_0001_41_56_H_._HHH_b1_00072_0001_0000100006_0000001_0_0001_af2pred_0001_1_af2pred_swapped (protein)
chain: SSSSSSEAEELVERLVEELNLSEEEKELLEEVAKQLEESGYNEELAERWLRMIVEALEKNSSSSS
B14: il2ra_site2_2erj_sap_29_mot_HHH_b1_07741_000000192_0001_1_20_H_._HHH_b1_04486_af2_0001_0000200006_0000001_0_0001 (protein)
chain: SSSSSDLHELYELAVRIMHLLARGDEEEAKELIERVKELAEELDSDNAREIAEWLERTLKSSSSS
B15: il2ra_site1_1z92_sap_10_mot_HHH_b2_05172_af2_000000284_0001_1_18_H_._HHH_b1_05364_af2_0001_0000100005_0000001_1_0001 (protein)
chain: SSSSDAWERAVEFALESLRRALELGNERSAERLFEFVRRQAENAHDPELERRVRELYEELSSSSS
B16: il2ra_site1_1z92_normal_mot_375b43ffed9a9ee9461e8325e968149e_0001_1_af2_000000109_0001_54_65_H_._fda5df8c19bda1ddfcc41857df859eb0_0001_1_0001_0000200014_0000001 … (protein)
chain: SVEELLREALRLAGFPPQSVERLLESAEEAAGGDPKQVVKLVLLDLERSGLLPPEAKEVLEEAER
B17: il2ra_site1_1z92_normal_mot_9daacd37e3baa650618043516f9fc948_0001_af2_000000116_0001_36_50_H_._e577cf9893892e11dfbc93bbc029d3b7_0001_0001_0000200046_0000001_0_a … (protein)
chain: DEPDLRELAARLGIAPEDLERMLKFLTEKNKIPRDLAEQLLRLLLRRVLEGDPRARRELAELLEV
B18: il2ra_site2_3nfp_normal_mot_HHH_b1_06586_000000201_0001_1_18_H_._HHH_b1_04442_0001_0000500037_0000001_0 (protein)
chain: SSSSSDREEFRRAVKSALRLAKQISDPELLKDAIAWAEALALMLGDDELERLVEEVEEELSSSSS

target: il2ra, P01589; assay: yeast display titration

Apparent Kd, inactive:
B1 no binding seen
B2 no binding seen
B3 no binding seen
B4 no binding seen
B5 no binding seen
B6 no binding seen
B7 no binding seen
B8 no binding seen
B9 no binding seen
B10 no binding seen
B11 no binding seen
B12 no binding seen
B13 no binding seen
B14 no binding seen
B15 no binding seen
B16 no binding seen
B17 no binding seen
B18 no binding seen

A section from the list above:
Apparent Kd, inactive:
B10 no binding seen
B11 no binding seen
